Experimental data: paper PMC7819943, “Rice protein-binding microarrays: a tool to detect cis-acting elements near promoter regions in rice”
Some of the results follow.

Protein sequences, listed by entry. Tags and fused reporters are not part of them.
UniProt Q0JBA9, entry or part of it: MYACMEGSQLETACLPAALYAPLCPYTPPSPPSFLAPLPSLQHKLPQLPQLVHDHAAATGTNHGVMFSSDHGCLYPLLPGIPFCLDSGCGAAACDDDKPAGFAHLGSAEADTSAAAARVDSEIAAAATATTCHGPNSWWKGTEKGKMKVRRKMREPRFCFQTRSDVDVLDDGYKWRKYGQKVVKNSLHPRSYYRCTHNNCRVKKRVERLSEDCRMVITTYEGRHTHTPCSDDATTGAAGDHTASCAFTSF

What follows are sequences tested against OsWRKY34 (Oryza sativa, UniProt Q0JBA9 1-250) (assay: protein-binding microarray (RPBM); PBS, 2% BSA, 51.3 ng/ul salmon testes DNA, 50 uM zinc acetate, 200 nM TF, 25 C, 1 h; high values mean tight binding). Settings: protein: recombinant; tags: N-terminal polyhistidine and DsRed monomer fusion (pET32a); label: CyDye5-dUTP incorporated in the synthesized complementary strand; 3' TTTTT single-stranded linker to array surface; dsDNA, one strand shown.
How it was run: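 For the binding signal, per-feature fluorescence intensity was read in arbitrary units on an Axon 4000B scanner. Before scanning, a 2% BSA-blocked custom Agilent array made double-stranded with Cy5-dUTP was washed after 1 h at 25 °C with 200 nM protein and 50 µM zinc acetate. The proteins were Ni–NTA-purified transcription factors with N-terminal polyhistidine and DsRed fusions, expressed in E. coli BL21-CodonPlus.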

Sequence | binding signal
CCCTAGCTTAGCTTTGTCTTTCGTGTTGGCCTCGGCGCGCCGGAGTCACCTAGTGCAG | 11100 fluorescence intensity (a.u.)
CACCACAAAGCTCTTCCACTGCAATCGCTGCCGGACTAGTCGGAGTCACCTAGTGCAG | 9760 fluorescence intensity (a.u.)
CCACTTCACTCCACTCCACATCACGCGGCCGCACTCCACTCGGAGTCACCTAGTGCAG | 11200 fluorescence intensity (a.u.)
CATATCAGTGGTTAACTGTGCTGTCTCAGTTGATCTCCCGCGGAGTCACCTAGTGCAG | 8360 fluorescence intensity (a.u.)
GGAAGAAAGAGATAAGGGGCCTAACATGTGGGGTGGGTCACGGAGTCACCTAGTGCAG | 10600 fluorescence intensity (a.u.)
CATCTTGTCACCGCCCTGAATGTTTGTGCTTAATTAATTACGGAGTCACCTAGTGCAG | 9170 fluorescence intensity (a.u.)
CTGTGTATATTCCCCTGACCATATCTCTCTATAAATAGCCCGGAGTCACCTAGTGCAG | 9350 fluorescence intensity (a.u.)
TCTCCGCCGTCCGTTCCCCTCTCTCTTCCTCGCCCTCGGCCGGAGTCACCTAGTGCAG | 9150 fluorescence intensity (a.u.)
CCGTCTCGTTGTCTCCTCCGCTCCTTGCGCCGCCGCCAAGCGGAGTCACCTAGTGCAG | 8270 fluorescence intensity (a.u.)
ATATTTGGTTTTTGGATTTTAGGGGTAATTCATACTCACCCGGAGTCACCTAGTGCAG | 8740 fluorescence intensity (a.u.)
AACAAGCGACTCCACTGTCTCTTTCCTTTCTCTTAGTATTCGGAGTCACCTAGTGCAG | 10200 fluorescence intensity (a.u.)
CGTTGACTTTTTTAAATATATAATTATTAATTTTTTTTCTCGGAGTCACCTAGTGCAG | 23900 fluorescence intensity (a.u.)
GTTGACAGTTTGACATGTGCTTGTAATTCTTTACCATTCTCGGAGTCACCTAGTGCAG | 12800 fluorescence intensity (a.u.)
GGGTTAAAAGATATGCTAGGGGTATTTTGGTCCATATAAACGGAGTCACCTAGTGCAG | 14900 fluorescence intensity (a.u.)
ATTGATGTTACTTATTTTTTATTTGTTATAACTATTTAATCGGAGTCACCTAGTGCAG | 8520 fluorescence intensity (a.u.)
TTTGCCTTGTCGAATCGCCGCTGCACCACCGTTCCCAACCCGGAGTCACCTAGTGCAG | 9580 fluorescence intensity (a.u.)
CAACGGACTTGACTTGTTTAGCCTTGTACTCCTTCATTATCGGAGTCACCTAGTGCAG | 9020 fluorescence intensity (a.u.)
AAGATTCTTCTCTTCGTCGACGACCCGGCCTCTCGCTCTCCGGAGTCACCTAGTGCAG | 9630 fluorescence intensity (a.u.)
CCCTTCTCTTCCTTCGCTAGAAGCCGCGCTCTGCTCTTCCCGGAGTCACCTAGTGCAG | 8090 fluorescence intensity (a.u.)
TTTGGTAGTCATTTCAGGCATGTGATGCTTCTTGGGGAGGCGGAGTCACCTAGTGCAG | 8930 fluorescence intensity (a.u.)
ACCACACCCCACCCCAGGAATCGATTTTTTTGCGGACAGACGGAGTCACCTAGTGCAG | 9910 fluorescence intensity (a.u.)

Copied from the list:
In binding signal, GGAAGAAAGAGATAAGGGGCCTAACATGTGGGGTGGGTCACGGAGTCACCTAGTGCAG reads 10600 fluorescence intensity (a.u.)
In binding signal, ACCACACCCCACCCCAGGAATCGATTTTTTTGCGGACAGACGGAGTCACCTAGTGCAG reads 9910 fluorescence intensity (a.u.)
In binding signal, TTTGCCTTGTCGAATCGCCGCTGCACCACCGTTCCCAACCCGGAGTCACCTAGTGCAG reads 9580 fluorescence intensity (a.u.)
In binding signal, CCCTTCTCTTCCTTCGCTAGAAGCCGCGCTCTGCTCTTCCCGGAGTCACCTAGTGCAG reads 8090 fluorescence intensity (a.u.)

Additional entries.

Sequence | binding signal
AATTGACTTCCTTGACCAAAAACCTCTTCTCTGATCTCTCCGGAGTCACCTAGTGCAG | 10800 fluorescence intensity (a.u.)
GTTTTCAAGTTTTCGCTATATATGTGATTTGCACCGTACACGGAGTCACCTAGTGCAG | 10100 fluorescence intensity (a.u.)
GATCTTGATAACTCCTAATTTTTTTTATTACTTCACCATTCGGAGTCACCTAGTGCAG | 9290 fluorescence intensity (a.u.)
AGAATCCTTTGTTTTTGTTGTGACTTTCGAGGATGACTTTCGGAGTCACCTAGTGCAG | 9230 fluorescence intensity (a.u.)
TTTGGTTAGGTTAGGTAGTACTGAAATCTTATGCGTAACACGGAGTCACCTAGTGCAG | 9160 fluorescence intensity (a.u.)
GTACTACTCCTAGTACAACCTCGCCTACCCGCTGCAACCACGGAGTCACCTAGTGCAG | 9420 fluorescence intensity (a.u.)
CCACGTGCCATCCCTGCTTTTTTCCACACCGTCCTCAGTACGGAGTCACCTAGTGCAG | 10400 fluorescence intensity (a.u.)
CTGTGTCCGTCTCCGCTTCTCCTCCTGCCTCCTGCAGTCTCGGAGTCACCTAGTGCAG | 8280 fluorescence intensity (a.u.)
ATATACTGCATATTTCTGTCGCTTTATCTCGATTAAGAAACGGAGTCACCTAGTGCAG | 8700 fluorescence intensity (a.u.)
CATTACTTTTTTGGTGGACTTGCAAAAACATGGGCATTTTCGGAGTCACCTAGTGCAG | 8680 fluorescence intensity (a.u.)
ACCATGTAACGAGTAATCTTTTGACCTGTGCCACGTCATCCGGAGTCACCTAGTGCAG | 9160 fluorescence intensity (a.u.)
GCATCATCTATCTCGATCAAACCGAGTCAACATATGACTACGGAGTCACCTAGTGCAG | 8350 fluorescence intensity (a.u.)
ATCATGAGTTTTGTTTTAATCTGACCCTTGTTTAAATTTCCGGAGTCACCTAGTGCAG | 8830 fluorescence intensity (a.u.)
TGTTGCCCACGTACGTGTTGCCGACGCCGAGGTCGCAGTCCGGAGTCACCTAGTGCAG | 8770 fluorescence intensity (a.u.)
GAGCCCGTACTCATTTCTCGCCAAGTGCACCACTTCACTCCGGAGTCACCTAGTGCAG | 10700 fluorescence intensity (a.u.)
ATCCACTCCCACGTGGGCCCCACACCTGCCGCCGTACCACCGGAGTCACCTAGTGCAG | 8120 fluorescence intensity (a.u.)
GCGGCATTGGAGTGGTGGCGAGGGGCGGCGGCTTCGGGTTCGGAGTCACCTAGTGCAG | 8070 fluorescence intensity (a.u.)
CCGTCCGCCATTGCAGCTTCGTTGTTCTGTACCTTCTTGCCGGAGTCACCTAGTGCAG | 10900 fluorescence intensity (a.u.)
GGGGAAGGGGCAGGGGAGGAAGGAGGCGCTGGGGTGGCTGCGGAGTCACCTAGTGCAG | 10400 fluorescence intensity (a.u.)
AGATTTTGTTTATGTTATTTTTATGGGGATTATTTTATGTCGGAGTCACCTAGTGCAG | 9870 fluorescence intensity (a.u.)
CCTATGGTTTACTGGGTTTTTTTTTCCGGAATTGCATTATCGGAGTCACCTAGTGCAG | 8280 fluorescence intensity (a.u.)

Sequence | binding signal
GGTGGGTTGCTGCCTTGCAGAATGTATCGGAAAATCCTCTCGGAGTCACCTAGTGCAG | 8660 fluorescence intensity (a.u.)
TTTTCTTTTATTTTCCACCGGTACTGTTCATTGCGCACCACGGAGTCACCTAGTGCAG | 11800 fluorescence intensity (a.u.)
AAGGGCTTTATTCACTTTCTTGTTTTTAATCATATCAGATCGGAGTCACCTAGTGCAG | 8240 fluorescence intensity (a.u.)
GGCTGGGCTCTGGGCTGTCGTCCGCCTCAGCGTCTTAAATCGGAGTCACCTAGTGCAG | 8940 fluorescence intensity (a.u.)
CCATATATTGTACAGATCTTTTCATTGCTTTATCCATACTCGGAGTCACCTAGTGCAG | 10000 fluorescence intensity (a.u.)
TTGCACAACTCCATTTGCTCCAATCCTTTTCTTCTCTTCTCGGAGTCACCTAGTGCAG | 9980 fluorescence intensity (a.u.)
ATTCCCTCGTCGCCAGCGGTTTCGCGTTGCCGCGTTCGTCCGGAGTCACCTAGTGCAG | 9100 fluorescence intensity (a.u.)
GCCCCACTAAAGAACATCTCCTGATTTTACATGTCATTAACGGAGTCACCTAGTGCAG | 8660 fluorescence intensity (a.u.)
TTGTGTAGTAGTGAAAATTTCTATCGAATGTGACGCATATCGGAGTCACCTAGTGCAG | 8080 fluorescence intensity (a.u.)
CAGGATCTTCTCCCTTGTGTTCTTGCTGCTTTTCTGCTCCCGGAGTCACCTAGTGCAG | 8480 fluorescence intensity (a.u.)
CTGGAATTCTTCTGCCGTTGTCTGCGCCTCTGTCTGCGATCGGAGTCACCTAGTGCAG | 8260 fluorescence intensity (a.u.)
CACCACAATCTCGTCCTCTCACTCACCCACGCACACATGCCGGAGTCACCTAGTGCAG | 8860 fluorescence intensity (a.u.)
GATTTACTTTTCTAGAATGTGTCACATCCACCTGAAATTTCGGAGTCACCTAGTGCAG | 8720 fluorescence intensity (a.u.)
GATTTTGGTTTGTGTTATGTCGGCAGGAGGCGGCGGCGGCCGGAGTCACCTAGTGCAG | 8650 fluorescence intensity (a.u.)
TCACCAGTTGTTCATTGTTGTTGTACACACCATGACCGCGCGGAGTCACCTAGTGCAG | 8230 fluorescence intensity (a.u.)
AAGCGCCCACATGTGTTGTGGAGGTCTCCCACTTTTTTTTCGGAGTCACCTAGTGCAG | 10900 fluorescence intensity (a.u.)
CTAACCCGCGCCCCAACCCTAGCCGCCTCCGCCCCGCCTCCGGAGTCACCTAGTGCAG | 8920 fluorescence intensity (a.u.)
TCCACGAGCTTGTTTTCATGTTTAGAGTAACTTTTCCAAACGGAGTCACCTAGTGCAG | 9180 fluorescence intensity (a.u.)
AGGTTGAGGTTCTCCCTCCACGTCCTCTTGGGTGGCTTCTCGGAGTCACCTAGTGCAG | 8430 fluorescence intensity (a.u.)
GTCGATTGTTTTCTACTCCACTTTTCTCTCTCTCGGTCTCCGGAGTCACCTAGTGCAG | 11700 fluorescence intensity (a.u.)
TCATCTGCTCCAAATTAAGCATTGCATCATCTACTCTGCCCGGAGTCACCTAGTGCAG | 8390 fluorescence intensity (a.u.)

Sequence | binding signal
CATCATTGGTGATCTCCCTTCATCCTCCTTTTAGCTTTGCCGGAGTCACCTAGTGCAG | 9360 fluorescence intensity (a.u.)
GATCTCACTGTTTTCTTCCATCCACCATCTTCTTTTCCGGCGGAGTCACCTAGTGCAG | 11500 fluorescence intensity (a.u.)
GCGATTCTTGCCACTCGCCAATCGCCGCCACACCCAATCCCGGAGTCACCTAGTGCAG | 8130 fluorescence intensity (a.u.)
TATATGAAATTTTCACACTTGTATTGTCTTAACTTTCCAGCGGAGTCACCTAGTGCAG | 8520 fluorescence intensity (a.u.)
AAATTTAACTTTTACATCGCGTCCCACCGTCGCCGCGCTCCGGAGTCACCTAGTGCAG | 8480 fluorescence intensity (a.u.)
GTTACGTTATATTTCACTGCTCAATTTAATGGTCTTGGTTCGGAGTCACCTAGTGCAG | 11000 fluorescence intensity (a.u.)
TTGTCTTCAAGTTTTTTCCATTGTGTCAGGATGTGATCACCGGAGTCACCTAGTGCAG | 9550 fluorescence intensity (a.u.)
ACAAACTGCAACTCGACAGGATTATAGCACAAATTATTTGCGGAGTCACCTAGTGCAG | 8170 fluorescence intensity (a.u.)
AGGGGTTAGCTATTATCGGACAACTTAGCATATTGAAATTCGGAGTCACCTAGTGCAG | 12600 fluorescence intensity (a.u.)
TCTCTCTTTCTTTCTATTTTTCTTTTCAGTCAGGTTAGTACGGAGTCACCTAGTGCAG | 11000 fluorescence intensity (a.u.)
ACGATGGATCACACAAAGCTCTCTCAGCTGCTTCTCTTCACGGAGTCACCTAGTGCAG | 9640 fluorescence intensity (a.u.)
TATCCCACCTACCATATACACACTGCGTCTTGGAGTCCGTCGGAGTCACCTAGTGCAG | 8260 fluorescence intensity (a.u.)
GGGAGGGAGGGAGAGGGGCAAGTGTGATTGATGCACAAACCGGAGTCACCTAGTGCAG | 8300 fluorescence intensity (a.u.)
GATTTTGGTCAACCTGCATCTGTTACTACAAGTAGTAAGTCGGAGTCACCTAGTGCAG | 9410 fluorescence intensity (a.u.)
TTGATTGGCTTGGCTGGCTTTGGCTTCCCTGTTCGATATTCGGAGTCACCTAGTGCAG | 10500 fluorescence intensity (a.u.)
GAGACCATCTCGGTTTCTTGCATCCTTTTCCCGTGTCTCGCGGAGTCACCTAGTGCAG | 8060 fluorescence intensity (a.u.)
TGACGTTGACCATTTATCTAGTTTTTTTTAAAAAATAATACGGAGTCACCTAGTGCAG | 11000 fluorescence intensity (a.u.)
ATCTTAACCGCAACAGCTTTGCATCTTTTTAGTACCTATTCGGAGTCACCTAGTGCAG | 8170 fluorescence intensity (a.u.)
ACCATAAAGCCAAGTTTCATCCATAATCCTTATTTTTCATCGGAGTCACCTAGTGCAG | 8670 fluorescence intensity (a.u.)
GCAGTTGGTGGTGTGTAGTGTGAGCTAAGGGTATTTGATCCGGAGTCACCTAGTGCAG | 8620 fluorescence intensity (a.u.)
TGTTCTTGTTCTCTGCATTCTCTGAATTCTCTGTCTCCCTCGGAGTCACCTAGTGCAG | 11400 fluorescence intensity (a.u.)
